Results reported in the supplement of paper PMC10849652.
This is one part of the list. Residues, ends and D or L forms follow the SMILES beside them. *: point of attachment. Cbz = O=C(OCc1ccccc1)*

Amino acid sequences for entries named in this document (tags omitted). A change or cut given only in a name is not applied to a line headed by its entry.
UniProt Q9NY12: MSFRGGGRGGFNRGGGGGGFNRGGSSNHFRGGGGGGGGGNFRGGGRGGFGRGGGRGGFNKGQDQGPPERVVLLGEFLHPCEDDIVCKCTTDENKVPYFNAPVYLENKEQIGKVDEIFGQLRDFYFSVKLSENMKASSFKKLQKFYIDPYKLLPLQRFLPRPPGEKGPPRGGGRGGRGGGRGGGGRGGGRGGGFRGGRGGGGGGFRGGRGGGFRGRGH
UniProt P02774: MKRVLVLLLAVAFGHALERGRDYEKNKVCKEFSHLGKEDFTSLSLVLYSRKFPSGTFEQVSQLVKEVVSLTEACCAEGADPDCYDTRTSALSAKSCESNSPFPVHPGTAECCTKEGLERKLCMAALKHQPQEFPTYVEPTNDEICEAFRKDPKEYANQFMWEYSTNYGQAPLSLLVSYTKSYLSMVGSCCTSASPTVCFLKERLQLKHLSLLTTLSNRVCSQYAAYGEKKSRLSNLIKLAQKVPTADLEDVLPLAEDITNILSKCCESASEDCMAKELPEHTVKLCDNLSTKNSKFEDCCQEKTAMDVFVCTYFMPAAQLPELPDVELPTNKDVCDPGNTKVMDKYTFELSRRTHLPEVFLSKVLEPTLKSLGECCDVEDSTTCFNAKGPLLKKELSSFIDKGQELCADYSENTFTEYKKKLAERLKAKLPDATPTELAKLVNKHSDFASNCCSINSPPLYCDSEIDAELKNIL
UniProt Q96CU9: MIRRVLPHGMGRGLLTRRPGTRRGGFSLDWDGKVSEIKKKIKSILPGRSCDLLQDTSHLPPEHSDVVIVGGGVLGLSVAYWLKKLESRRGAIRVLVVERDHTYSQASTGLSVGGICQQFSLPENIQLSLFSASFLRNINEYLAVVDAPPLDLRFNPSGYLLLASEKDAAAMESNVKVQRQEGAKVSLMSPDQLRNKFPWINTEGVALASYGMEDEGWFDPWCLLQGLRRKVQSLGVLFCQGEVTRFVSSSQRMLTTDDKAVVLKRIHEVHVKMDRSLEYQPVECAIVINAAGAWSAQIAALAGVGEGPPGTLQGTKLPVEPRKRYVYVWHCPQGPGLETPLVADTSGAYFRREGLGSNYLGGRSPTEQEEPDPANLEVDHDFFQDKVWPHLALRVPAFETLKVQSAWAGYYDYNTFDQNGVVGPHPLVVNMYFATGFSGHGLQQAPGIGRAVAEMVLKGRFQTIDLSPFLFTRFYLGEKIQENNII
UniProt Q9H2C0: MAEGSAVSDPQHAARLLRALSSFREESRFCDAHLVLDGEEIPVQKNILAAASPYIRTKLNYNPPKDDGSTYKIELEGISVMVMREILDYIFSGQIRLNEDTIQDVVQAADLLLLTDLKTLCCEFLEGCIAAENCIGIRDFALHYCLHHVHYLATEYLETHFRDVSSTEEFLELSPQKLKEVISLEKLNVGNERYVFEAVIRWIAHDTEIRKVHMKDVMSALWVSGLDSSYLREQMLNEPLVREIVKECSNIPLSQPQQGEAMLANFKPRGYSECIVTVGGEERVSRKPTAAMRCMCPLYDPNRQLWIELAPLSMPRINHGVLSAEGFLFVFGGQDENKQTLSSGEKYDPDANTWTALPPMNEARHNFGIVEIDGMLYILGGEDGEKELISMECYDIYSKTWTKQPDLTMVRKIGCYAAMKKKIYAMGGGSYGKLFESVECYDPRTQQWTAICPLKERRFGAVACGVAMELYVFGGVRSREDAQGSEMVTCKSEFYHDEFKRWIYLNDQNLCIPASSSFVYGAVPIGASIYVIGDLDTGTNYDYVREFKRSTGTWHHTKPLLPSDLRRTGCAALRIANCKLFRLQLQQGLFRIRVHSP
UniProt P07902: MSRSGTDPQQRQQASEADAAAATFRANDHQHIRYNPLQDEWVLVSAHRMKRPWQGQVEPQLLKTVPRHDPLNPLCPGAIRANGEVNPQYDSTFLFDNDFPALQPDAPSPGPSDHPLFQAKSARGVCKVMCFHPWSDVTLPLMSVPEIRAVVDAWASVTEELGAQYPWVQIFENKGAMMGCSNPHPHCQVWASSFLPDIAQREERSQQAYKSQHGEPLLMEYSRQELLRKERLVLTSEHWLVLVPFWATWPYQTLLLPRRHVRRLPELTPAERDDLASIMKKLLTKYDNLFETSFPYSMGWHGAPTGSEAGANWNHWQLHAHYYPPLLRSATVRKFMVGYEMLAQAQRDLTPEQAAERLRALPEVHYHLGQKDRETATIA
UniProt Q7L5D6: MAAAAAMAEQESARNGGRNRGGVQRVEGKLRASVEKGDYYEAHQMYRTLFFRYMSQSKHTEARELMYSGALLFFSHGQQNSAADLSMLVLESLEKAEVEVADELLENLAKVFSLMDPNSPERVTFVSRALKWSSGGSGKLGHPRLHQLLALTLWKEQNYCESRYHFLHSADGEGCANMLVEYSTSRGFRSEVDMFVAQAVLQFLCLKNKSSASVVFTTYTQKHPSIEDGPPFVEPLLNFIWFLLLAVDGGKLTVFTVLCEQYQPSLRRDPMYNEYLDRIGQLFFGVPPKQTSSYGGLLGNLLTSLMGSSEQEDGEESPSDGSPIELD
UniProt P50395: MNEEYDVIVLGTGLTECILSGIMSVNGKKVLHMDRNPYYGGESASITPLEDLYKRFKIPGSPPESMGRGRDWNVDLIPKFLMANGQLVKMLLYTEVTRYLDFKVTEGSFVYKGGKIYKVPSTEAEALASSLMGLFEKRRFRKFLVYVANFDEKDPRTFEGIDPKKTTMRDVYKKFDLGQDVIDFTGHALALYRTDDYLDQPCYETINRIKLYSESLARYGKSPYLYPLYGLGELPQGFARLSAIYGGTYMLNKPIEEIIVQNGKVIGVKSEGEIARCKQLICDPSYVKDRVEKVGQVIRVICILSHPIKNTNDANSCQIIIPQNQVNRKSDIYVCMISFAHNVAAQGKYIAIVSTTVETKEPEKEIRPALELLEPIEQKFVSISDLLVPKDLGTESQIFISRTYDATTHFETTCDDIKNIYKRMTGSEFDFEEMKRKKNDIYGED
UniProt P35637: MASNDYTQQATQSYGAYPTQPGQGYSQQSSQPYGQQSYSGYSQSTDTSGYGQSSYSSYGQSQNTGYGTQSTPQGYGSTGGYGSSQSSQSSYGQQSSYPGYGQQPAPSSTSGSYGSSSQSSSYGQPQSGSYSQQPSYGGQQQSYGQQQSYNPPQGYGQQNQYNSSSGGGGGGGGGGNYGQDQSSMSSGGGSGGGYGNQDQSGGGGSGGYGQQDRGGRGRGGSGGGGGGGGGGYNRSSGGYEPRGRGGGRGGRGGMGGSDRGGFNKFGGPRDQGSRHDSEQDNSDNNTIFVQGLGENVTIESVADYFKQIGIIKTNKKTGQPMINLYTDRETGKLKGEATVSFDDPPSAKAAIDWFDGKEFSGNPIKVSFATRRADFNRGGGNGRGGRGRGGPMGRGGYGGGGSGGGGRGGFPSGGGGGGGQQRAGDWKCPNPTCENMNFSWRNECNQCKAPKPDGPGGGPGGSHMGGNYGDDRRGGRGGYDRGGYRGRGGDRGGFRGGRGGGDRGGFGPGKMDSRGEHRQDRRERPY
UniProt Q9C0B1, whole entry, looked up: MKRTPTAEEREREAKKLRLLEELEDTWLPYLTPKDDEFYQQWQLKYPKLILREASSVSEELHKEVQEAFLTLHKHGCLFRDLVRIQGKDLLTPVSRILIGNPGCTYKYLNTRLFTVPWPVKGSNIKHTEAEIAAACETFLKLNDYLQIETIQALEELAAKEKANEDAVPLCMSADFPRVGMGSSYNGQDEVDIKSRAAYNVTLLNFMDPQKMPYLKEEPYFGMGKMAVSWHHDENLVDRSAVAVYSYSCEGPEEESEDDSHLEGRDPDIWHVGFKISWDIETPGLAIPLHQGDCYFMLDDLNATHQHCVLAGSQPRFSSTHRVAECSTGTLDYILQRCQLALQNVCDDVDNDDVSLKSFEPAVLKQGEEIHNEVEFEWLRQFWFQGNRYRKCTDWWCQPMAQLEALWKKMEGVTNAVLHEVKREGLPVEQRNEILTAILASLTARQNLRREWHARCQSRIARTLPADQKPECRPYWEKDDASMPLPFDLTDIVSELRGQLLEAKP
UniProt O75223: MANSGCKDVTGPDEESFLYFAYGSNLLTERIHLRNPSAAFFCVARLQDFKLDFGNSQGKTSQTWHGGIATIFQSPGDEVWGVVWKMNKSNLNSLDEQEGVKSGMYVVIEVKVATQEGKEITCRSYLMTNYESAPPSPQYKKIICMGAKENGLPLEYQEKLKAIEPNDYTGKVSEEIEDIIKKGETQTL
UniProt Q8TB36: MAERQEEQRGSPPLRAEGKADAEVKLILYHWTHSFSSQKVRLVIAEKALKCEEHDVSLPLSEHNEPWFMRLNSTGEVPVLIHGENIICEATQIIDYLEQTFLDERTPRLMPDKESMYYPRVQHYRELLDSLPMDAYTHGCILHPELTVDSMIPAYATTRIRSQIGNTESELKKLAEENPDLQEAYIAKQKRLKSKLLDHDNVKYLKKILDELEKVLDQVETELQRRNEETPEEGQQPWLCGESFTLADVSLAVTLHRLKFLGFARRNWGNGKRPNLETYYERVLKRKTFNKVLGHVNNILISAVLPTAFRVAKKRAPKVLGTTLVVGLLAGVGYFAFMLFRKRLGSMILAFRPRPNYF
UniProt P04062: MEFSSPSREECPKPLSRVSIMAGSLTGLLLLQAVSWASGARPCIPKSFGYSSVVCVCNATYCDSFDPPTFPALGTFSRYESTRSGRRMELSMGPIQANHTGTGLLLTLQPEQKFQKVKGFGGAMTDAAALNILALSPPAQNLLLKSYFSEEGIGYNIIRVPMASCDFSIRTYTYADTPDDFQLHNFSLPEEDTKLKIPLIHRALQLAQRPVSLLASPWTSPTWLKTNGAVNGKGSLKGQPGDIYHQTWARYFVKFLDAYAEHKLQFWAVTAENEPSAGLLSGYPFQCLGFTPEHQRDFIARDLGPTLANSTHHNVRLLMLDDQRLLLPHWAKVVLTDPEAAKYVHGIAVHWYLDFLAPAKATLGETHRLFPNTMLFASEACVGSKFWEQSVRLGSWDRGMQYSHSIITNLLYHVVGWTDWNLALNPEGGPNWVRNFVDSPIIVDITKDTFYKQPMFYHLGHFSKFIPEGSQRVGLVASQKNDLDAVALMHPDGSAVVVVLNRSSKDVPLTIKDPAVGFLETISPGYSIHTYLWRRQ
UniProt Q7Z7M9: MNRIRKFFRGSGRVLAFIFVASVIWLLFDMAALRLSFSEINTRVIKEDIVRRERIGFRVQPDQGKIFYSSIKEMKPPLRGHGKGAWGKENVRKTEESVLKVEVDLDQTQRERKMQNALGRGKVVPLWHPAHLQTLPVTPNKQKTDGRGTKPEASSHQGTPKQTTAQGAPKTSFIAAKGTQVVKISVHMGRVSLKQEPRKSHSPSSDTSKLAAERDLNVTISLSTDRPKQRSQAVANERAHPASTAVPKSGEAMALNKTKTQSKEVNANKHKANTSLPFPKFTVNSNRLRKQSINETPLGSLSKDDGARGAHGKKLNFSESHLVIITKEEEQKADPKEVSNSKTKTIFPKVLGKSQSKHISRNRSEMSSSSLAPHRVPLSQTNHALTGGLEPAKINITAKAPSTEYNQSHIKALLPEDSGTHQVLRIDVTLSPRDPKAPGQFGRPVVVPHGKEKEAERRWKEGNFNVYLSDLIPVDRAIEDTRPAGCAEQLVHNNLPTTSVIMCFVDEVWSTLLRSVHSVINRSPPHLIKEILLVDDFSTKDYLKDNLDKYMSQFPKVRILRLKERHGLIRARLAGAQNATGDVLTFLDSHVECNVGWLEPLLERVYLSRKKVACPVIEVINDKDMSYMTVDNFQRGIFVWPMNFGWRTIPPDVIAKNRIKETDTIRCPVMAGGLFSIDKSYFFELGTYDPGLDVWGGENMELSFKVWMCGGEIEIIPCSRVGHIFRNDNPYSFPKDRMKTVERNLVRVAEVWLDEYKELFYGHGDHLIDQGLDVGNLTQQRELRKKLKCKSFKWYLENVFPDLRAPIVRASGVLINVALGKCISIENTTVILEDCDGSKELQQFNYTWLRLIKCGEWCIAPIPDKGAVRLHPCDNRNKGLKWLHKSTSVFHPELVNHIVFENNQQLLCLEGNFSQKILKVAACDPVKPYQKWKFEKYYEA

Legend:
Assay in all cases: log2 fold change, soluble protein after heating vs DMSO (PISA); higher = thermal stabilisation; K562 cells, 10 uM, 30 min; active = over 0.2 and 3.5 SD of the protein, either way, in both replicates (recomputed)
[1] = compound: C#Cc1cccc(Nc2ncnc3cc(OCCOC)c(OCCOC)cc23)c1 [erlotinib]
In short: (§1)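 Aliquots of K562 cells (2×10^6 cells/mL) treated with 10 μM compound for 30 min were heated for 3 min over 48°C-58°C. After pooling and extraction in PBS with 0.5% NP-40 at 4°C, soluble protein from a 21,000xg, 90 min spin was quantified by TMTpro 16plex LC-MS/MS with channel sums equalised. Thermal stability is expressed against control samples, from duplicates, as a log2 fold change.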

[2] = compound: C/C(=N\NC(=O)C1=CC(=CC=C1)S(=O)(=O)N2CCOCC2)/C3=C(C=CC(=C3)Cl)O
In short: as §1

[3] = compound: C1=CC(=C(C=C1Cl)C2=NC3=NC=CN=C3C(=N2)NC4=CC=NC=C4)F
In short: as §1

[4] = compound: C1=CC(=CC=C1C2=NC3=C(N2)C=C(C=C3)C(=O)N)OC4=CC=C(C=C4)Cl
In short: as §1

[5] = compound: C1=CC2=C(C=CC(=C2)/C=C\3/C(=O)NC(=NCC4=CC=CS4)S3)N=C1
In short: as §1

[6] = compound: C1=CC2=NC=CN=C2C=C1/C=C/3\C(=O)NC(=O)S3
In short: as §1

[7] = compound: C1=CC=C(C=C1)C2=NC(=C(N2)C3=CC=NC=C3)C4=CC(=C(C=C4)Cl)O
In short: as §1

[8] = compound: C1=CC=C2C(=C1)C3=NNC4=CC=CC(=C43)C2=O
In short: as §1

[9] = compound: C1CCN(C1)C(=O)NC2=CC=CC(=C2)NC3=NC=C(C(=N3)NCCC4=CN=CN4)Br
In short: as §1

[10] = compound: C1CN(CCC1(CC2=CC=C(C=C2)Cl)N)C3=NC=NC4=C3C=CN4
In short: as §1

[11] = compound: C1COCCN1CCN2C3=CC=CC=C3N=C2NC(=O)C4=CC(=CC=C4)[N+](=O)[O-] [IRAK-1-4 Inhibitor I]
In short: as §1

[12] = compound: C=CC(=O)N1CCC[C@@H](n2nc(-c3ccc(Oc4ccccc4)cc3)c3c(N)ncnc32)C1 [ibrutinib]
In short: as §1

[13] = compound: CC(=O)c1cnc2ccc(-c3cc(Cl)c(O)c(Cl)c3)nc2c1N[C@H]1CC[C@H](CN(C)C)CC1
In short: as §1

[14] = compound: CC(C)(C)Cn1c(N)nc2ccc(-c3[nH]c(C(C)(C)C)nc3-c3ccc(F)cc3)nc21 [ralimetinib]
In short: as §1

[15] = compound: CC(C)(O)CC(=O)NCCn1ccc2ncnc(Nc3ccc(Oc4cccc(C(F)(F)F)c4)c(Cl)c3)c21
In short: as §1

[16] = compound: CC(C)C1=C2N=C(C=C(N2N=C1)NCC3=CC=CC=C3)NCCCCCCN
In short: as §1

[17] = compound: CC(C)C[C@@H](C=O)NC(=O)[C@H](CC(C)C)NC(=O)[C@H](CC(C)C)NC(=O)OCc1ccccc1
In short: as §1

[18] = compound: CC(C)N(C[C@H]1O[C@@H](n2cnc3c(N)ncnc32)[C@H](O)[C@@H]1O)[C@H]1C[C@@H](CCc2nc3cc(C(C)(C)C)ccc3[nH]2)C1 [pinometostat]
In short: as §1

[19] = compound: CC1=C(C(CC(=O)N1)C2=CC=C(C=C2)C(F)(F)F)C(=O)NC3=C(C=C4C(=C3)C=NN4)F
In short: as §1

[20] = compound: CC1=C(C2=C(C=C1)C(=O)C3=CC=CC=C3N2CCCN)C
In short: as §1

Measured: log2 fold change

GAR1 (UniProt Q9NY12)
inactive: [1] -0.093 | [2] -0.104 | [3] -0.334 | [4] 0.027 | [5] -0.056 | [6] 0.02 | [7] -0.046 | [8] -0.003 | [9] 0.022 | [10] -0.215 | [11] -0.092 | [12] 0.005 | [13] 0.028 | [14] 0.074 | [15] 0.067 | [16] 0.025 | [17] 0.161 | [18] 0.236 | [19] -0.039 | [20] -0.14

GADD45GIP1 (UniProt Q8TAE8)
inactive: [1] -0.065 | [2] -0.095 | [3] -0.03 | [4] 0.014 | [5] -0.066 | [6] -0.006 | [7] -0.011 | [8] 0.09 | [9] 0.062 | [10] -0.015 | [11] -0.008 | [12] -0.016 | [13] 0.071 | [14] 0.052 | [15] -0.055 | [16] 0.007 | [17] 0.112 | [18] 0.01 | [19] 0.006 | [20] -0.074

GC isoform 3 (UniProt P02774)
inactive: [1] -0.244 | [2] -0.078 | [3] 0.007 | [4] -0.014 | [5] 0 | [6] 0.053 | [7] 0.134 | [8] -0.134 | [9] 0.139 | [10] 0.323 | [11] 0.22 | [12] 0.165 | [13] 0.212 | [14] 0.099 | [15] 0.389 | [16] 0.094 | [17] -0.135 | [18] -0.159 | [19] 0.027 | [20] -0.195

FOXRED1 (UniProt Q96CU9)
inactive: [1] -0.037 | [2] 0.013 | [3] 0.051 | [4] 0.03 | [5] 0.032 | [6] 0.011 | [7] 0.039 | [8] 0.085 | [9] -0.026 | [10] 0.128 | [11] -0.015 | [12] 0.14 | [13] -0.001 | [14] -0.064 | [15] -0.021 | [16] -0.014 | [17] 0.057 | [18] -0.034 | [19] -0.008 | [20] 0.074

GAN (UniProt Q9H2C0)
inactive: [1] 0.012 | [2] 0.058 | [3] 0.079 | [4] 0.006 | [5] 0.075 | [6] -0.002 | [7] 0.047 | [8] -0.013 | [9] -0.004 | [10] 0.027 | [11] 0.057 | [12] 0.024 | [13] -0.06 | [14] -0.032 | [15] 0.038 | [16] 0.025 | [17] -0.027 | [18] -0.014 | [19] 0.01 | [20] 0.057

GALT (UniProt P07902)
inactive: [1] 0.008 | [2] 0.023 | [3] -0.079 | [4] -0.037 | [5] 0.049 | [6] 0.043 | [7] 0.048 | [8] -0.068 | [9] -0.107 | [10] 0.005 | [11] 0.066 | [12] 0.045 | [13] -0.09 | [14] -0.068 | [15] -0.064 | [16] 0.096 | [17] 0.016 | [18] -0.089 | [19] 0.263 | [20] 0.001

GET4 (UniProt Q7L5D6)
inactive: [1] -0.02 | [2] 0.043 | [3] -0.064 | [4] 0.024 | [5] -0.016 | [6] 0.036 | [7] 0.006 | [8] -0.076 | [9] -0.018 | [10] -0.089 | [11] 0.016 | [12] -0.025 | [13] -0.034 | [14] 0.022 | [15] 0.006 | [16] -0.12 | [17] 0.074 | [18] 0.05 | [19] -0.038 | [20] 0.004

GDI2 (UniProt P50395)
inactive: [1] -0.069 | [2] -0.014 | [3] 0.042 | [4] 0.019 | [5] -0.029 | [6] -0.001 | [7] -0.01 | [8] 0.025 | [9] 0.012 | [10] 0.018 | [11] 0.046 | [12] 0.008 | [13] 0.002 | [14] 0.035 | [15] 0.002 | [16] 0.092 | [17] -0.008 | [18] -0.016 | [19] 0.025 | [20] -0.008

FUS (UniProt P35637)
inactive: [1] -0.023 | [2] -0.136 | [3] -0.165 | [4] 0.023 | [5] -0.149 | [6] 0 | [7] -0.045 | [8] -0.009 | [9] 0.026 | [10] -0.026 | [11] -0.134 | [12] 0.042 | [13] 0.07 | [14] 0.11 | [15] 0.105 | [16] 0.187 | [17] 0.058 | [18] 0.016 | [19] 0.033 | [20] 0.251

Copied from the entries so far (three entries):
GAN (UniProt Q9H2C0)
inactive: [1] 0.012 | [2] 0.058 | [3] 0.079 | [4] 0.006 | [5] 0.075 | [6] -0.002 | [7] 0.047 | [8] -0.013 | [9] -0.004 | [10] 0.027 | [11] 0.057 | [12] 0.024 | [13] -0.06 | [14] -0.032 | [15] 0.038 | [16] 0.025 | [17] -0.027 | [18] -0.014 | [19] 0.01 | [20] 0.057

GALT (UniProt P07902)
inactive: [1] 0.008 | [2] 0.023 | [3] -0.079 | [4] -0.037 | [5] 0.049 | [6] 0.043 | [7] 0.048 | [8] -0.068 | [9] -0.107 | [10] 0.005 | [11] 0.066 | [12] 0.045 | [13] -0.09 | [14] -0.068 | [15] -0.064 | [16] 0.096 | [17] 0.016 | [18] -0.089 | [19] 0.263 | [20] 0.001

GET4 (UniProt Q7L5D6)
inactive: [1] -0.02 | [2] 0.043 | [3] -0.064 | [4] 0.024 | [5] -0.016 | [6] 0.036 | [7] 0.006 | [8] -0.076 | [9] -0.018 | [10] -0.089 | [11] 0.016 | [12] -0.025 | [13] -0.034 | [14] 0.022 | [15] 0.006 | [16] -0.12 | [17] 0.074 | [18] 0.05 | [19] -0.038 | [20] 0.004

Going on with the list.

FTO (UniProt Q9C0B1)
inactive: [1] 0.008 | [2] -0.104 | [3] 0.052 | [4] 0.002 | [5] 0.003 | [6] 0.106 | [7] 0.026 | [8] 0 | [9] -0.013 | [10] 0.065 | [11] 0.075 | [12] -0.019 | [13] 0.021 | [14] -0.03 | [15] -0.061 | [16] 0.066 | [17] -0.029 | [18] -0.04 | [19] -0.018 | [20] 0.008

GAMT (UniProt Q14353)
inactive: [1] -0.092 | [2] -0.013 | [3] 0.041 | [4] -0.004 | [5] 0 | [6] 0.024 | [7] 0.049 | [8] -0.073 | [9] -0.105 | [10] -0.017 | [11] 0 | [12] 0.014 | [13] 0.007 | [14] 0.078 | [15] -0.074 | [16] -0.063 | [17] -0.016 | [18] -0.028 | [19] -0.029 | [20] -0.04

GGCT (UniProt O75223)
inactive: [1] 0.037 | [2] 0.009 | [3] 0.043 | [4] -0.015 | [5] 0.016 | [6] 0.003 | [7] 0.009 | [8] -0.009 | [9] 0.033 | [10] 0.032 | [11] 0.045 | [12] -0.04 | [13] 0.003 | [14] -0.074 | [15] -0.008 | [16] 0.007 | [17] -0.011 | [18] -0.016 | [19] -0.009 | [20] 0.003

GDAP1 (UniProt Q8TB36)
inactive: [1] 0.069 | [2] -0.013 | [3] 0.065 | [4] -0.005 | [5] -0.065 | [6] 0.048 | [7] 0.111 | [8] 0.135 | [9] 0.003 | [10] 0.023 | [11] -0.06 | [12] -0.022 | [13] 0.02 | [14] 0.089 | [15] 0.11 | [16] 0.146 | [17] -0.147 | [18] 0.003 | [19] -0.018 | [20] 0.018

FRYL (UniProt O94915)
inactive: [1] -0.068 | [2] 0.026 | [3] -0.032 | [4] 0.028 | [5] 0.018 | [6] 0.005 | [7] -0.015 | [8] 0.001 | [9] -0.027 | [10] -0.026 | [11] 0.014 | [12] -0.053 | [13] -0.044 | [14] 0.045 | [15] -0.015 | [16] -0.013 | [17] 0.02 | [18] 0.082 | [19] -0.004 | [20] 0.006

GBA (UniProt P04062)
inactive: [1] -0.028 | [2] 0.156 | [3] -0.005 | [4] 0.021 | [5] -0.198 | [6] 0.017 | [7] 0.008 | [8] -0.023 | [9] -0.039 | [10] 0.018 | [11] -0.02 | [12] -0.001 | [13] 0.002 | [14] -0.031 | [15] -0.001 | [16] 0.028 | [17] 0.113 | [18] -0.032 | [19] 0.04 | [20] 0.09

GALNT5 (UniProt Q7Z7M9)
inactive: [1] 0.026 | [2] -0.009 | [3] 0.031 | [4] -0.042 | [5] 0.032 | [6] -0.006 | [7] 0.015 | [8] 0.026 | [9] -0.011 | [10] 0.018 | [11] -0.003 | [12] -0.003 | [13] -0.047 | [14] -0.042 | [15] -0.01 | [16] 0.066 | [17] -0.011 | [18] 0.034 | [19] -0.022 | [20] 0.014
